In PMC8495400:
Results are given in words; binding and its absence hold for the method and conditions named. Binding seen in cells or lysates may run through a third protein. Some results given as binding are weak or reduced against the parent protein; the word gives no strength.

Protein sequences, listed by entry. Tags and fused reporters are not part of them. Residues count along the entry.
UniProt P22415: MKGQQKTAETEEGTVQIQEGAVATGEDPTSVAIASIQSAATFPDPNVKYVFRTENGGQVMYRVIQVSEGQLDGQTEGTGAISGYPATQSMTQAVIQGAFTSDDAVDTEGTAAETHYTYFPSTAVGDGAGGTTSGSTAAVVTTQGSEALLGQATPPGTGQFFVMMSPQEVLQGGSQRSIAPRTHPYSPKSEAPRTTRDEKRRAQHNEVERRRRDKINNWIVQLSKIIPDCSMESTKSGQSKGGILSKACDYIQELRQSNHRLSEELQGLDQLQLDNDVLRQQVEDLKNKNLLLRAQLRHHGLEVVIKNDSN
UniProt Q16665: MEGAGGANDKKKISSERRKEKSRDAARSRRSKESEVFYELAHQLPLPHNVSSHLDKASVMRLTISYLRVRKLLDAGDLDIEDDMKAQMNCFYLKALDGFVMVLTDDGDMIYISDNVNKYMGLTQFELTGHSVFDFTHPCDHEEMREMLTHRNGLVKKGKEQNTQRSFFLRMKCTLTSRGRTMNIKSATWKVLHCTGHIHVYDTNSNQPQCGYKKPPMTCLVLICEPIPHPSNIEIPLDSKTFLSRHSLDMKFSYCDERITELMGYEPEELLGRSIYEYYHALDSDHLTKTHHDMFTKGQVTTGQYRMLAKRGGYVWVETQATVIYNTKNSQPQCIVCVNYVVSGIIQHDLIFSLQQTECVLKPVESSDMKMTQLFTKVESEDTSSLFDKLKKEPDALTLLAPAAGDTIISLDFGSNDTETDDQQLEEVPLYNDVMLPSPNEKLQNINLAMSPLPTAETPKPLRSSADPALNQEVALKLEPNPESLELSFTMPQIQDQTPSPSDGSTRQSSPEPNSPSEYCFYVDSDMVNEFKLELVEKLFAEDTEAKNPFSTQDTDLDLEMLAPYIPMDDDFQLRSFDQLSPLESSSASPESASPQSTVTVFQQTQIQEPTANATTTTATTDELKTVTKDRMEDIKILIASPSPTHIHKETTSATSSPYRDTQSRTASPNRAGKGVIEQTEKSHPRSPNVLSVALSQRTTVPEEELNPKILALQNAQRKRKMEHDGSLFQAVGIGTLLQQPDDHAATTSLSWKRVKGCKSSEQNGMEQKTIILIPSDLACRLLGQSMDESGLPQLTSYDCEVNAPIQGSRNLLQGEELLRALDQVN
UniProt Q13443, residues 29-819: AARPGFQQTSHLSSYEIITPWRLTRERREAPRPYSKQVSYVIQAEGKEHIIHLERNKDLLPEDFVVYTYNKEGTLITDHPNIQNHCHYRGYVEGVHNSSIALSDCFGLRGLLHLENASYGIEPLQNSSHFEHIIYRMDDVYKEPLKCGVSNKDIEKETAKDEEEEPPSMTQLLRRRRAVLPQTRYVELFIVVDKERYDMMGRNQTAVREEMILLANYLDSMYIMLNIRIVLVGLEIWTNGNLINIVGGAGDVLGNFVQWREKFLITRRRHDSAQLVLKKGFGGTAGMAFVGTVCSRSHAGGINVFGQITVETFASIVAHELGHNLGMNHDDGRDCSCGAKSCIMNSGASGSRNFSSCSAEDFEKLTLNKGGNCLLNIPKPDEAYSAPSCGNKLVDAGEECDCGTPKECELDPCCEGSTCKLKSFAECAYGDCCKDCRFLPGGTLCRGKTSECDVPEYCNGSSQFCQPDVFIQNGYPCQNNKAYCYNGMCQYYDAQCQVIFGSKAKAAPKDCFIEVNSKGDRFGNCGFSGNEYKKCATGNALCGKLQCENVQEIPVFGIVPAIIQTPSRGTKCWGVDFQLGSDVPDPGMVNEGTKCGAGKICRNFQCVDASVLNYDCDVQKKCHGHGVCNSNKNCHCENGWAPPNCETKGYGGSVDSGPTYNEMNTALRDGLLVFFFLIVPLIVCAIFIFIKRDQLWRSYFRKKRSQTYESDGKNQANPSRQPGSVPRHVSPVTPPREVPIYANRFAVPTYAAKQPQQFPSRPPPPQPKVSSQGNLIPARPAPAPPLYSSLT

Key:
Assay in all cases: proximity ligation; Duolink In situ Red Starter Kit on fixed KYSE170 cells, normoxia and hypoxia; two primary antibodies (ADAM9 and the transcription factor); signals counted in the whole cell and the nucleus
[1] = molecular target: upstream transcription factor 1 (human (endogenous in KYSE170)) (UniProt P22415)
[2] = molecular target: hypoxia inducible factor 1 subunit alpha (human (endogenous in KYSE170)) (UniProt Q16665)
[3] = molecular target: TP53 (human (endogenous in KYSE170)) (UniProt P04637)

Measured: binding

a disintegrin and metalloprotease 9 (from UniProt Q13443 29-819)
binds: all assays above
